# Library screen at single concentrations

The chains behind the UniProt entries cited, without tags or fusion partners. Residues count along the entry.
UniProt P9WPC5, whole entry: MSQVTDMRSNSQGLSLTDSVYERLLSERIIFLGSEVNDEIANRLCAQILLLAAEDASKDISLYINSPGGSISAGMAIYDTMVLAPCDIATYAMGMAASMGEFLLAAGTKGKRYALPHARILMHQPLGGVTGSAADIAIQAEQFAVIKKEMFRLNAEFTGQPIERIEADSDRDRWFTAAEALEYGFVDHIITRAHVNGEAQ
UniProt P9WPC3, whole entry partner: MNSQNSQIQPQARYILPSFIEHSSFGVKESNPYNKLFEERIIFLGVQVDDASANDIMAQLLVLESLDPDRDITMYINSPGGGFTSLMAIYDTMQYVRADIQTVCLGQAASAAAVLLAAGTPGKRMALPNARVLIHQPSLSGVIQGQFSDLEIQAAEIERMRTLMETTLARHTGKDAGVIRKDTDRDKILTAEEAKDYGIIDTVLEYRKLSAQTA
UniProt P9WNZ1, whole entry: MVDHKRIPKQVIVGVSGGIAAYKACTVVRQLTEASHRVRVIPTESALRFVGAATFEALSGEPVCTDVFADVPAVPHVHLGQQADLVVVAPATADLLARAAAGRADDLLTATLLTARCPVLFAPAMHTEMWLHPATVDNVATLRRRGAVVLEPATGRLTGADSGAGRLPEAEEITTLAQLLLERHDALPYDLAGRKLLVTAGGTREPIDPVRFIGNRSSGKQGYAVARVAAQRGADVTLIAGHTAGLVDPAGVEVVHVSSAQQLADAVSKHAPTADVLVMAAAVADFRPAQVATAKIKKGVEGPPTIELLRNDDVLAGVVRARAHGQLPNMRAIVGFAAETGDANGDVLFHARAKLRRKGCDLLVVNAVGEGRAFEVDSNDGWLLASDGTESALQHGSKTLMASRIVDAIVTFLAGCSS
UniProt Q8IDJ8, 1-583: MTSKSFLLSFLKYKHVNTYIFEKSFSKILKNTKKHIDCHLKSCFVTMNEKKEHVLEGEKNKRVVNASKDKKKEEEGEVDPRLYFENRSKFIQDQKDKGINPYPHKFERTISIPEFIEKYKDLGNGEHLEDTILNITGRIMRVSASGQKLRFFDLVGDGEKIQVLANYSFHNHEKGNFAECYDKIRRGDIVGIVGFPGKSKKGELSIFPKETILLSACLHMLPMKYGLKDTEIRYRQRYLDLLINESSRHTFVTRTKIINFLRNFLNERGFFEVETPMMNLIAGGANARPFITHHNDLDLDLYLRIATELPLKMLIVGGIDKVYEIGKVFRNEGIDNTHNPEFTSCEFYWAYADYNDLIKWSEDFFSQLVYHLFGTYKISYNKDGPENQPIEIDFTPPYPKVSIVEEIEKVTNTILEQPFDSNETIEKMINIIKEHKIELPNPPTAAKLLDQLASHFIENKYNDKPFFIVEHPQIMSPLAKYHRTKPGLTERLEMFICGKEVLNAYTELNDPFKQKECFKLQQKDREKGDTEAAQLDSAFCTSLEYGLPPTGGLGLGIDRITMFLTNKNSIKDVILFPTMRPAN

The values are deposited in ChEMBL (CHEMBL3988442, “University of Dundee, Small-Polar-MMV Screening Library” (2021)).

Results are given as percent effect.
The controls that fix the scale are not given in the record; negative values are as filed.
Compounds were drawn at random from those tested, without regard to their results.
Two or more numbers in one place are separate tests of the same structure; such repeats can differ widely.
A dash means the value is not listed here; it may have been measured.

ClpP1P2: 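Protease assay of ClpP1P2, read by the AMC dye that it sets free. Target: ClpP1P2, Mycobacterium tuberculosis (UniProt P9WPC5 and UniProt P9WPC3). Concentration: 50 µM. Higher reads as stronger inhibition, judged from the few compounds that gave an IC50. Most other retested compounds had strongly negative values. Size under these conditions: about 69,000 compounds, about 10 of them at 50% or above in at least one test.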
CoaBC: 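Enzyme assay of CoaBC with a phosphate dye (Biomol Green) read at 650 nm. Target: Coenzyme A biosynthesis protein CoaBC, Mycobacterium tuberculosis (UniProt P9WNZ1). Compounds at 30 µM. Higher reads as stronger inhibition, judged from the few compounds that gave an IC50. Most strong results did not repeat in a second test. About 67,000 compounds were tested under these conditions; 0.06% (about 40) showed 50% or more at least once.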
PfKRS1: 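Lysine-tRNA ligase, Plasmodium falciparum 3D7 (UniProt Q8IDJ8). Enzyme assay of the cytosolic lysyl-tRNA synthetase in 384-well plates, read by luminescence. Tested at 30 µM. Direction is inferred from only a few compounds that gave an IC50; most scored high, so higher reads as stronger inhibition. Of about 69,000 compounds tested this way, about 49 (0.071%) reached 50% or more in at least one test.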
Leishmania in macrophages: 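Cell assay of Leishmania donovani living inside macrophages; the read-out is not stated. Concentration: 30 µM. The record gives no direction; compounds that gave an IC50 in retests scored well above the rest, so higher reads as stronger inhibition. Size under these conditions: about 69,000 compounds, about 1,000 of them at 50% or above in at least one test.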

structure | ClpP1P2 | CoaBC | PfKRS1 | Leishmania in macrophages
Cl.c1cnc2c(c1)cc([C@H]1CCCO1)n2CCN1CCOCC1 | - | - | - | 25.65
Fc1ccc2[nH]c(CO[C@H]3CN(CC4CC4)C[C@H]3F)nc2c1 | -8.3 | -0.1965 | 4.854 | 6.969
CCc1nc(CCNC(=O)NC2CCN(C(C)C)C2)sc1C (stereo unspecified) | 8.727 | 7.46 | 4.675 | 12.66
Cc1cc(NC(=O)CO)nn1-c1ccc(Cl)cc1Cl | -6.352 | 6.163 | 3.8 | 21.31
Cc1cccc(CNC(C)c2ccc(OCC(=O)NC3CC3)cc2)c1 (stereo unspecified) | -1.659 | 7.761 | 2.119 | 35.67
O=C(O)C(F)(F)F.[H][C@@]12COC[C@]1(COc1ncccc1F)CN(C(=O)C1=CCCC1)C2 | - | - | - | -20.22
O=C(c1cccc(OC2CCCC2)c1)N1CCCC(n2cncn2)C1 (stereo unspecified) | -5.046 | 5.101 | 3.179 | 13.95
Cc1occc1C(=O)N1CCC2(CCN(C(=O)c3cccnc3)C2)CC1.O=C(O)C(F)(F)F | - | - | - | 17.12
CS(=O)(=O)NCC1CCCN(C(=O)c2ccc(F)c(F)c2)C1 (stereo unspecified) | -17.51 | -0.1164 | -0.07763 | 11.89
O=c1c2ccccc2nc2n1C(CSc1ccc(Br)cc1)CN2 (stereo unspecified) | -5.757 | 10.36 | 6.394 | 14
CS(=O)(=O)c1nccn1CCOc1ccccc1F | -2.801 | -3.512 | -3.474 | -2.919
Cc1cnc(CNC(=O)N(CCCO)C2CCc3ccccc32)s1 (stereo unspecified) | -10.74 | -0.4545 | 0.5764 | 5.615
Cc1nc(C(=O)N2CCCC(c3cc(C(F)(F)F)[nH]n3)C2)c[nH]1 (stereo unspecified) | -10.87 | 0.7653 | 0.29 | 30.21
Cc1ccc(CNC(=O)CN2CCN(CCO)CC2)s1 | -4.408 | 0.2457 | 2.898 | 32.71
O=C(c1cccnc1SC/C=C/c1ccccc1)N1CCOCC(O)C1 (stereo unspecified) | -11.15 | 15.87 & 24.21 | -1.512 | -17.52
COc1cccc(C(=O)N2C[C@@H](C(=O)O)[C@H](c3ccccc3C)C2)c1 | -2.62 | -3.433 | 1.368 | 14.06
CC(C)CNC(=O)NC(=O)C(C)Nc1cccc(CN2CCOC2=O)c1 (stereo unspecified) | -29.23 | 2.895 | 0.6492 | 13.11
O=C(NC1CC1)NC(c1cc(F)ccc1F)C1CC1 (stereo unspecified) | -1.832 | - | 2.711 | -1.711
N#Cc1cccc(CNC(=O)NC2CCN(CC(F)F)CC2)c1 | -6.797 | 8.584 | 2.147 | -2.909
CS(=O)(=O)c1cnc(C2CCCC2)nc1C1CCCNC1 (stereo unspecified) | -22.37 | 3.046 | 8.928 | 18.99
CCCN(C(=O)c1cnc(C)cn1)c1nc2c(s1)CCc1c-2cnn1C | -1.881 | 2.696 | 40.38 | -25.41
COc1cccc2c1OCC(C(=O)N(Cc1ccncc1)CC(C)C)C2 (stereo unspecified) | -9.109 | 4.914 | 1.743 | -32.35
CCc1ncc(C(=O)c2ccc(OC)cc2)n1C | 6.844 | -8.594 | 2.432 | 25.01
Cc1nn(CCNC(=O)c2cc(C3CC3)[nH]n2)c(C)c1Cl | -9.333 | 0.1156 | 2.709 | 8.826
Cc1nnc(N2CCOC(C)(C(=O)NC3CCCC3)C2)c2ccccc12 (stereo unspecified) | -25.5 | -6.553 | 0.834 | 21.45
CCCc1nnc(NCc2ccc(OC)c(C#N)c2)o1 | -5.445 | -2.337 | -3.773 | 0.2469
Cc1cnc(CNC(=O)c2cc3c(s2)CCN3S(C)(=O)=O)cn1 | 7.776 | 15.43 | 1.557 | 12.58 & 24.96
Cc1nnc2n1CCN(C(=O)CN1C(=O)CCCc3ccccc31)C2 | 3.873 | -1.499 | 1.727 | -48.5
Cc1cc(=O)[nH]c(-n2nc(C)c(CCC(=O)NCc3ccco3)c2C)n1 | -1.557 | -0.8424 | 0.7792 | -5.272
O=C(O)C(F)(F)F.O=C(O)C(F)(F)F.O=C(O)C(F)(F)F.[H][C@]12C[C@@H](Cn3cccn3)N(c3nccs3)[C@@]1([H])CCN(C(C)C)C2 | - | - | - | -5.973
O=C(O)C(F)(F)F.O=C(O)C(F)(F)F.O=C(c1cnccn1)N1CCCC2(CCN(Cc3cccnc3)C2)C1 (stereo unspecified) | - | - | - | 17.72
CC(C)(C)c1cnc(CNc2cccc(Cn3cnnc3)c2)o1 | -10.82 | 6.962 | 6.904 | 25.47
CC(C(=O)N(C)Cc1nnc2n1CCC2)S(C)(=O)=O (stereo unspecified) | 5.143 | - | 0.1231 | 25.71
CC(C)c1noc(CN2CCN(C(=O)OC(C)(C)C)C(C)C2)n1 (stereo unspecified) | -8.092 | 2.93 | -6.799 | 2.93
CC(NCCCN1CCCC1=O)c1ccc(F)cc1N(C)C (stereo unspecified) | -12.12 | -5.817 | 0.9832 | 2.334
CC(C)n1ccnc1C1CCCN(c2cncc(N(C)C)n2)C1 (stereo unspecified) | 7.608 | 2.571 | 2.736 | 8.216
CCOCCCNC(=O)C(NC(=O)Cc1cccs1)c1ccc(C)cc1 (stereo unspecified) | 5.062 | 1.013 | -0.1095 | -13.11 & 12.57
CCN1C(=O)C2(CCOCC2)c2cc(NC(=O)COC)ccc21 | 0.2761 | -7.015 | 4.418 | -3.739
CCCN(CC(=O)N1CCNCC1)C(=O)c1cccc(Cl)c1 | -0.4717 | 3.038 | 3.564 | -
Cc1ccc(N(C)S(=O)(=O)c2cc(C(=O)O)cs2)c(C)c1 | -0.7688 | 5.342 | -0.3719 | -13.17
CCOC(=O)N1CCC2(CC1)N=C(CCC(C)C)NC2=O | -4.466 | 7.158 | 2.298 | 24.93
COc1c(C2CCCN2Cc2c(C)noc2C)c(C)nn1C (stereo unspecified) | 3.318 | -5.867 | 1.95 | 9.681
Cc1cnc(C(=O)N2C[C@@H]3[C@@H](C2)OCC(=O)N3CC2CCCC2)cn1 | 7.787 | -32.9 | 2.64 | -
Cn1cc(CN2CCOC(Cc3cccc(F)c3)C2)cn1 (stereo unspecified) | -20.89 | -0.6289 | 3.412 | 19.71
Cc1ccc(CC(=O)N2CCCN(Cc3nccn3C)CC2)cn1 | -10.81 | -7.507 | 0.4689 | 35.29
COC(=O)c1cc(CN2CCC(c3noc(C)n3)CC2)c(C)s1 | 0.8677 | 10.1 | 3.778 | 39.65
Cc1ccccc1CN1CCNC(=O)C1CC(=O)NCC1CCCCC1 (stereo unspecified) | -6.844 | -4.555 | 10.32 | 34.34
Nc1cccnc1N1CCC(C(F)(F)F)CC1 | 10.64 | -1.381 | -2.392 | 0.9295
CCc1ccccc1-n1cc(O)c(C(=O)N2CCCCC2)n1 | -4.112 | 5.396 | 4.484 | 6.989
O=C(O)C(F)(F)F.O=C(c1cccnc1)N1CCC2(CC1)COCCN(c1ncccn1)C2 | - | - | - | 24.91
CC(C)(C)n1ncc2c1NC(=O)CC2c1cccc(F)c1 (stereo unspecified) | -7.697 | -1.277 | 1.752 | -8.014
CCNC(=O)[C@@H]1C[C@H](NC(=O)c2ccccc2C#N)CN1CCCSC | 1.95 | 11.4 | 0.9033 | 12.22
Cc1cccc(COC2COC3(CCN(S(C)(=O)=O)CC3)C2)n1 (stereo unspecified) | 3.317 | 5.943 | -0.5143 | -
Cn1ccnc1-c1cccc(NC(=O)NCCCN2CCOCC2)c1 | -5.872 | 7.298 | 3.85 | 7.595
Cc1ccc(CN2Cc3nnn(C)c3C(COCC(=O)N(C)C)C2)s1 (stereo unspecified) | -8.942 | 3.457 | 0.6945 | -
Cc1cc(C)c(C(=O)NC(CN2CCCC2)c2ccccc2)c(=O)[nH]1 (stereo unspecified) | 10.24 | 4.577 | 5.726 | 21.37
NC(=O)N1CCCC(C(=O)NCc2ccccc2OC(F)(F)F)C1 (stereo unspecified) | 5.636 | 7.592 | -0.6311 | 10.31
O=c1cc(Cn2cncn2)nc2n1CCCN(Cc1ccoc1)C2 | 8.127 | 7.431 | 4.345 | 16.6
COc1ncccc1CN1CCN(c2noc(C(C)C)n2)CC1 | 13.91 | -3.204 | 2.286 | -39.86
O=C1NCC[C@]12CN(Cc1nccs1)C[C@H]2c1ccccc1 | -3.926 | -2.648 | 0.5019 | -
O=C(O)C1CCCN1c1nc(-c2ccc(Cl)cc2)cc(C(F)(F)F)n1 (stereo unspecified) | -2.898 | -6.075 | 3.075 | 0.08626
O=C1COc2ccc(S(=O)(=O)N3CCOCC3)c3c2N1CCC3 | -17.34 | -1.38 | 1.512 | -9.4
CCOCCS(=O)(=O)N(CC)Cc1ccc(Cl)s1 | -0.4632 | 6.048 | 4.798 | 11.45
CN(C)C(=O)N1C[C@@H]2CCCO[C@@H]2[C@H](N(C)Cc2ccco2)C1 | -0.7547 | 8.387 | -0.4688 | -
Cc1nc2c(c(N3CCC(O)(Cn4ccnc4)CC3)n1)CCNCC2 | -8.038 | 0.7673 | 1.492 | 17.77

Repeated from the top, 6 entries:

With Cl.c1cnc2c(c1)cc([C@H]1CCCO1)n2CCN1CCOCC1 the screen gave Leishmania in macrophages: 25.65%.
With Fc1ccc2[nH]c(CO[C@H]3CN(CC4CC4)C[C@H]3F)nc2c1 the screen gave ClpP1P2: -8.3%; CoaBC: -0.1965%; PfKRS1: 4.854%; Leishmania in macrophages: 6.969%.
With CCc1nc(CCNC(=O)NC2CCN(C(C)C)C2)sc1C (stereo unspecified) the screen gave ClpP1P2: 8.727%; CoaBC: 7.46%; PfKRS1: 4.675%; Leishmania in macrophages: 12.66%.
With Cc1cc(NC(=O)CO)nn1-c1ccc(Cl)cc1Cl the screen gave ClpP1P2: -6.352%; CoaBC: 6.163%; PfKRS1: 3.8%; Leishmania in macrophages: 21.31%.
With Cc1cccc(CNC(C)c2ccc(OCC(=O)NC3CC3)cc2)c1 (stereo unspecified) the screen gave ClpP1P2: -1.659%; CoaBC: 7.761%; PfKRS1: 2.119%; Leishmania in macrophages: 35.67%.
With O=C(O)C(F)(F)F.[H][C@@]12COC[C@]1(COc1ncccc1F)CN(C(=O)C1=CCCC1)C2 the screen gave Leishmania in macrophages: -20.22%.